{"source": "paper PMC9500407", "about": "“Quantifying the transport of biologics across intestinal barrier models in real-time by fluorescent imaging” (Frontiers in Bioengineering and Biotechnology, 2022)", "key": {"[1]": {"tested_on": "Caco-2 monoculture tubules (chip)", "assay": "Lucifer Yellow leakage after drug exposure, chip monoculture", "conditions": "100 µM LY co-applied, after 2 h of exposure to 10 µM drug"}, "[2]": {"tested_on": "Caco-2:HT29-MTX E12 coculture tubules (chip)", "assay": "Lucifer Yellow leakage after drug exposure, chip coculture", "conditions": "100 µM LY co-applied, after 2 h of exposure to 10 µM drug"}, "[3]": {"conditions": "cited from earlier work", "description": "page 17: Supplementary Table 5. Direct statistical comparison of drug transport in Transwells, mono-and coculture tubules of 12 model drugs using an unpaired t-test."}, "[4]": {"tested_on": "Caco-2 monolayers (Transwell)", "assay": "Lucifer Yellow leakage after drug exposure, Transwell", "conditions": "100 µM LY co-applied, after 2 h of exposure to 10 µM drug, Caco-2 Transwell"}}}
{"smiles": "CC(C)NCC(O)COc1ccc(CC(N)=O)cc1", "note": "(stereo not shown) [Atenolol]", "values": [{"measurement": "Lucifer Yellow leakage (%) Chip Caco-2", "setting": "[1]", "value": 0.02, "unit": "%"}, {"measurement": "Lucifer Yellow leakage (%) Chip Caco-2:HT29-MTX E12", "setting": "[2]", "value": 0.01, "unit": "%"}, {"measurement": "Transport route", "setting": "[3]", "value": "Paracellular"}, {"measurement": "Lucifer Yellow leakage (%) Transwell", "setting": "[4]", "value": 0.02, "unit": "%"}]}
